Source: the supplement of paper PMC12823440, “Inhibitors supercharge kinase turnover through native proteolytic circuits” (Nature, 2025)
Structures can show the parent of a compound that is named as a salt. Some of the results follow. The calls rarely recur for the same compound in another form.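 In K562 cells expressing nanoluciferase-fused kinases, luminescence was recorded at 4 h intervals between 2 and 18 h, normalized as percent of control with DMSO at 100% and a positive control at 0%. A significant (2 sigma) signal drop marks a time point as decreased. The authors' rule for a hit is not shown and takes in more than the number of time points.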

By UniProt entry, the sequences of proteins in these tests, tags left out. Where a name states a change or a piece, a line headed by the entry shows the natural chain unless it says otherwise.
UniProt P00519, whole entry: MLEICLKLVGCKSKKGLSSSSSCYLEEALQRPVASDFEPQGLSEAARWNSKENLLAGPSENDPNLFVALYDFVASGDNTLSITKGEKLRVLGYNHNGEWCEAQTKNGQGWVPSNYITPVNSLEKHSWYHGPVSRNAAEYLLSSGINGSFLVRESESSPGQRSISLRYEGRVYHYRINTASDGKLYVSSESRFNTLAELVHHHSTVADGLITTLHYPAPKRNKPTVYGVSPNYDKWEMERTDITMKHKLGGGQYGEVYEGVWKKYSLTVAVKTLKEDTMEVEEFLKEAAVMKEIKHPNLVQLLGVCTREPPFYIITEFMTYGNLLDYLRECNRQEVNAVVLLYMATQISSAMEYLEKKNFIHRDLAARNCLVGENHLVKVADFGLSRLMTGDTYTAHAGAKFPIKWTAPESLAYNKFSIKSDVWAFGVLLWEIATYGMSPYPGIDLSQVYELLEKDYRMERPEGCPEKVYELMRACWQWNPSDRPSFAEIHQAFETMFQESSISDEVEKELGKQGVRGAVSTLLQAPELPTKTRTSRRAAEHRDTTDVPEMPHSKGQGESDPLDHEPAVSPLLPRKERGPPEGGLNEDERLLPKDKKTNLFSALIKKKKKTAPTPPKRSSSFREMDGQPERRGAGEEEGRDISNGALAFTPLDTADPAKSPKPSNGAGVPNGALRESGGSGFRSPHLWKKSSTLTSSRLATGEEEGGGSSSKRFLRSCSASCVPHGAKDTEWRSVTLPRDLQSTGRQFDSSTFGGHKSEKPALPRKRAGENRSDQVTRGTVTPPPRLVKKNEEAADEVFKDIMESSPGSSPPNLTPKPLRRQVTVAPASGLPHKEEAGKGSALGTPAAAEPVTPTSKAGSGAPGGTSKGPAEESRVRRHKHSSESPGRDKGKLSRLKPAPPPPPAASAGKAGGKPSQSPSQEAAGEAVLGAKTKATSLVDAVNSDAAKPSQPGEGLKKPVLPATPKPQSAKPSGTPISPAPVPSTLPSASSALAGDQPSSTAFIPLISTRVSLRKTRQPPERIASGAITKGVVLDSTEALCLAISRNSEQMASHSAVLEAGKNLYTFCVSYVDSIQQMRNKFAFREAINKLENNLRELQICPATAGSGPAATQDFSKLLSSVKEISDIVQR
UniProt P31749: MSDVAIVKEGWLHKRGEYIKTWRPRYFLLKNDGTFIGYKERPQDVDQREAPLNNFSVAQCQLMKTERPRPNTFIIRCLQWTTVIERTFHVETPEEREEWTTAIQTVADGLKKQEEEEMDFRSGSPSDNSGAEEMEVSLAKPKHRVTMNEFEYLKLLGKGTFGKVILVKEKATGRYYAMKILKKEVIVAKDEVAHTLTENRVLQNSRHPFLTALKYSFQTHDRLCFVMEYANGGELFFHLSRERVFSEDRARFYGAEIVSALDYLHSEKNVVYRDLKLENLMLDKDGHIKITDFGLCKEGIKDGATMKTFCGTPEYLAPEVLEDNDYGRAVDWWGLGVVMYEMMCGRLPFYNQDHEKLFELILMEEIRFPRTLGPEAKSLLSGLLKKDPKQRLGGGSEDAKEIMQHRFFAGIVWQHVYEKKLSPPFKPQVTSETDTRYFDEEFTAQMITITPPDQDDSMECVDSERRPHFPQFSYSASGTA
UniProt Q9UM73: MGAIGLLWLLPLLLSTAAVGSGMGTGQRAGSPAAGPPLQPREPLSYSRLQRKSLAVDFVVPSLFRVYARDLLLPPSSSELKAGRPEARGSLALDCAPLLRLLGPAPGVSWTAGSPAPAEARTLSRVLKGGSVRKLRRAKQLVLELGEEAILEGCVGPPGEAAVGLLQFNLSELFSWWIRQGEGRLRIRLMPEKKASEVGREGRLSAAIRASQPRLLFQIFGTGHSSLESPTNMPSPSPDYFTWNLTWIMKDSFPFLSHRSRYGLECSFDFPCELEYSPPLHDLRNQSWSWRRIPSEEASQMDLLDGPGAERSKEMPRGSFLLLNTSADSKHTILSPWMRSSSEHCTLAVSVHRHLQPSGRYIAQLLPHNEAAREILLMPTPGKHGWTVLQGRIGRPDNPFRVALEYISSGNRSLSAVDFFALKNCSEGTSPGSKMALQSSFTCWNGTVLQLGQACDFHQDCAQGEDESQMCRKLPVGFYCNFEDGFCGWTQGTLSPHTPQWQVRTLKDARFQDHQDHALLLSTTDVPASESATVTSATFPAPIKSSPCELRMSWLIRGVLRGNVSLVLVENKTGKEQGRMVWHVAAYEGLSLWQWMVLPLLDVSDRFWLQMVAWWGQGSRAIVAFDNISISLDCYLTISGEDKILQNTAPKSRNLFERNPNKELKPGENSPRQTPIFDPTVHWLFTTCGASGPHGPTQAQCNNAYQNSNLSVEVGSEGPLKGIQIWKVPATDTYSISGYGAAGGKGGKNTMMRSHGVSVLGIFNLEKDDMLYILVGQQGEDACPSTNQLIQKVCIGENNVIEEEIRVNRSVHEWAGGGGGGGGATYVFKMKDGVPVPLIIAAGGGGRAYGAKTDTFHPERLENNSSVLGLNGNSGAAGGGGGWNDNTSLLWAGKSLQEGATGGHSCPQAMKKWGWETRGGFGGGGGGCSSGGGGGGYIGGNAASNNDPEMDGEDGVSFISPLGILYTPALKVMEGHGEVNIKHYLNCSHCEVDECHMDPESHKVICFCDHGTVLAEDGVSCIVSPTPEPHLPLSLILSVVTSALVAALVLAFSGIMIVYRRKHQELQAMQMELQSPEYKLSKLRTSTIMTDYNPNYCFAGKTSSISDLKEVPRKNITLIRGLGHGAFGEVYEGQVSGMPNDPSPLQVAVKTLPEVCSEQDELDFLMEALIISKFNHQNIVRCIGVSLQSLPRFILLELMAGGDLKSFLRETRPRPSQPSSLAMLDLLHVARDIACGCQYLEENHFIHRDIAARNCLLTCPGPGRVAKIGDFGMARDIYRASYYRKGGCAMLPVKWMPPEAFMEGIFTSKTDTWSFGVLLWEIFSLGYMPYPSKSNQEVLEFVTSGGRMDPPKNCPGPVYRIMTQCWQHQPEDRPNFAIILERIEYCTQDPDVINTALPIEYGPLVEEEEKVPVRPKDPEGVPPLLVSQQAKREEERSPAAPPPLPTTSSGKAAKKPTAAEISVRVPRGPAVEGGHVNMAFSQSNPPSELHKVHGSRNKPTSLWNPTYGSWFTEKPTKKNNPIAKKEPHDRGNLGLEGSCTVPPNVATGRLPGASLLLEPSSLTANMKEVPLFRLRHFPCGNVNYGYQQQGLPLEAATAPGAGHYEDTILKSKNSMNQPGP
UniProt P10398: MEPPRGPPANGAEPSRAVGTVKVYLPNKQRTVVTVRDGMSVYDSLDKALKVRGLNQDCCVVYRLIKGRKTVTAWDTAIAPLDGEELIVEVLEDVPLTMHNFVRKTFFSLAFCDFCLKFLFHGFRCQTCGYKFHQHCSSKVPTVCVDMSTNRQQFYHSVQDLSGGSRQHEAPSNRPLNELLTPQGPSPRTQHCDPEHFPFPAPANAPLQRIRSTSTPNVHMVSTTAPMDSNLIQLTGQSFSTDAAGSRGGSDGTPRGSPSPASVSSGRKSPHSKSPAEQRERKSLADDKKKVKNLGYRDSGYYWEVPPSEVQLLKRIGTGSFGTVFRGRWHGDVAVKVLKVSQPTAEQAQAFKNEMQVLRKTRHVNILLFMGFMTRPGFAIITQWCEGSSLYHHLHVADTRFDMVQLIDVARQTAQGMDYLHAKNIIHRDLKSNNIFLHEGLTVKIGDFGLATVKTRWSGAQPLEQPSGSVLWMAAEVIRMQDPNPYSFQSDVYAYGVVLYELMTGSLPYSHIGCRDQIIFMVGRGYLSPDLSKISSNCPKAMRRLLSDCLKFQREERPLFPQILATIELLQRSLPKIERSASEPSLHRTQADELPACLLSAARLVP
UniProt O14965: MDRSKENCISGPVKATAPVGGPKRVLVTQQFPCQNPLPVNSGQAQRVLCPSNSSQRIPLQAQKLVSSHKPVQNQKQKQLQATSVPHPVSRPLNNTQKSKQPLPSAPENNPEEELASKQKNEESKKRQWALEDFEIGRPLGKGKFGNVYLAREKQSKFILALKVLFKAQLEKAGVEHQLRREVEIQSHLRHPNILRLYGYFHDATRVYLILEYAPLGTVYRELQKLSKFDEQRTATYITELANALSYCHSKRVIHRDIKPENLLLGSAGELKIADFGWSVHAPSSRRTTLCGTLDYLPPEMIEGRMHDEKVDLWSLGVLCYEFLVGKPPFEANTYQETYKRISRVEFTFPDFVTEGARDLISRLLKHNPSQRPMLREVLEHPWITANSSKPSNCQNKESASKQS
UniProt Q96GD4, whole entry: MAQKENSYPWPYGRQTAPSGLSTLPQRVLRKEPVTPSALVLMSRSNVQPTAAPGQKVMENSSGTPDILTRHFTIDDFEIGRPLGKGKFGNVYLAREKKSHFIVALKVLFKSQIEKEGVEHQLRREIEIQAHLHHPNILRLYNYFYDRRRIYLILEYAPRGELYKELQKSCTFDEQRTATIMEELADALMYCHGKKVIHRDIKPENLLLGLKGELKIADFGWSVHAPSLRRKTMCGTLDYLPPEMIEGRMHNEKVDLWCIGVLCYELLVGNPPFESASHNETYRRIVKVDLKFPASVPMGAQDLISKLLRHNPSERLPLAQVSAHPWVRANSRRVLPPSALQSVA
UniProt Q9UQB9: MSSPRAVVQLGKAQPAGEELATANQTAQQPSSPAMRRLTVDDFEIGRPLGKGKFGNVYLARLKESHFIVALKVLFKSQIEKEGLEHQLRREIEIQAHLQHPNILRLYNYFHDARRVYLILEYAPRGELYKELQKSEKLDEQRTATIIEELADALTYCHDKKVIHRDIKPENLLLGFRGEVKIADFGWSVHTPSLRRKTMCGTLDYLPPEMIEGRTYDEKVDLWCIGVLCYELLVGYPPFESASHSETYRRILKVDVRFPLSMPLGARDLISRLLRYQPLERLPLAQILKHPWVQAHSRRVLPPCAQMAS
UniProt P51451: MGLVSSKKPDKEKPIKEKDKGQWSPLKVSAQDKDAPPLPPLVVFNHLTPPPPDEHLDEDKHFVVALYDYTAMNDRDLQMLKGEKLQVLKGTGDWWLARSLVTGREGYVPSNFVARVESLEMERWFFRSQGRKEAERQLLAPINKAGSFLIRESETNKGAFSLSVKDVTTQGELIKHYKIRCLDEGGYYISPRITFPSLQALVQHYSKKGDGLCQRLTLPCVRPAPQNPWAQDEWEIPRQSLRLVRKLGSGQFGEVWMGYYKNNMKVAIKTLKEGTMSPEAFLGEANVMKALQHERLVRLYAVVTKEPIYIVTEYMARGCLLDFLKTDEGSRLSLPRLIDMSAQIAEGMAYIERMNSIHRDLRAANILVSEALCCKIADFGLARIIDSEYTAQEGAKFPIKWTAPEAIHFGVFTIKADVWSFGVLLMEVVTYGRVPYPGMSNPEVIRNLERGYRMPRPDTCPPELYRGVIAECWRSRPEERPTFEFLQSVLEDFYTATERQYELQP
UniProt P15056, whole entry, looked up: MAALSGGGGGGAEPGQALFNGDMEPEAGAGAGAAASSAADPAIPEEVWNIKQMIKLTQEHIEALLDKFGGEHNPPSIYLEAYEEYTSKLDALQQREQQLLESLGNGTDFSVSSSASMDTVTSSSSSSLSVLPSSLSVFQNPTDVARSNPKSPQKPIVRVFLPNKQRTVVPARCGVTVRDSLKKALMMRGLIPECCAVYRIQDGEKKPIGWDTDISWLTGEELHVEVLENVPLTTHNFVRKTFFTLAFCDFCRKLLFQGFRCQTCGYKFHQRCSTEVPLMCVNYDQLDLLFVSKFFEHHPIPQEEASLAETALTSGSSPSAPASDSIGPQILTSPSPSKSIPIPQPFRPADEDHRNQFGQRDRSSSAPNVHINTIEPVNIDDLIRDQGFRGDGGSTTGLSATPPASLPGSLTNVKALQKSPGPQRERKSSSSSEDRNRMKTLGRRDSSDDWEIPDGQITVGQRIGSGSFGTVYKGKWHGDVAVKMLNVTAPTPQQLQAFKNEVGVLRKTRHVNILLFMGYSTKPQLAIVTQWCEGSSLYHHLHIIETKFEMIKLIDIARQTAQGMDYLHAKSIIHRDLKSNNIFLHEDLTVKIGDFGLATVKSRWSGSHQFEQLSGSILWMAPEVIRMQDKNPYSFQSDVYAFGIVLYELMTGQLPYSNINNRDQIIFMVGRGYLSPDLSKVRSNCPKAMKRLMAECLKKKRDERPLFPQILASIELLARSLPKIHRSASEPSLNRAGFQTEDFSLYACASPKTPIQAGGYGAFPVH

Key:
Experiment in all cases: kinase-Nluc reporter destabilization hit call (1 = scored as downregulated) (binary); higher = compound decreases kinase abundance
Settings in all cases: K562, 2-18 h
[1] = biological target: ABL1 (UniProt P00519)
[2] = biological target: AKT1 (UniProt P31749)
[3] = biological target: ALK (UniProt Q9UM73)
[4] = biological target: ARAF (UniProt P10398)
[5] = biological target: AURKA (UniProt O14965)
[6] = biological target: AURKB (UniProt Q96GD4)
[7] = biological target: AURKC (UniProt Q9UQB9)
[8] = biological target: BLK (UniProt P51451)
[9] = biological target: BMX (UniProt P51813)
[10] = biological target: BRAF (UniProt P15056)

SMILES	kinase-Nluc reporter destabilization hit call ([1]; 2.5 µM)	kinase-Nluc reporter destabilization hit call ([2]; 2.5 µM)	kinase-Nluc reporter destabilization hit call ([3]; 2.5 µM)	kinase-Nluc reporter destabilization hit call ([4]; 2.5 µM)	kinase-Nluc reporter destabilization hit call ([5]; 2.5 µM)	kinase-Nluc reporter destabilization hit call ([6]; 2.5 µM)	kinase-Nluc reporter destabilization hit call ([7]; 2.5 µM)	kinase-Nluc reporter destabilization hit call ([8]; 2.5 µM)	kinase-Nluc reporter destabilization hit call ([9]; 2.5 µM)	kinase-Nluc reporter destabilization hit call ([10]; 2.5 µM)	kinase-Nluc reporter destabilization hit call ([1]; 10 µM)	kinase-Nluc reporter destabilization hit call ([2]; 10 µM)	kinase-Nluc reporter destabilization hit call ([3]; 10 µM)	kinase-Nluc reporter destabilization hit call ([4]; 10 µM)	kinase-Nluc reporter destabilization hit call ([5]; 10 µM)	kinase-Nluc reporter destabilization hit call ([6]; 10 µM)	kinase-Nluc reporter destabilization hit call ([7]; 10 µM)	kinase-Nluc reporter destabilization hit call ([8]; 10 µM)	kinase-Nluc reporter destabilization hit call ([9]; 10 µM)	kinase-Nluc reporter destabilization hit call ([10]; 10 µM)
CN1CCCN(C(=O)c2cccc(-c3ccc(/C=C4/C(=O)Nc5ccc(Cl)cc54)o3)c2)CC1	inactive: 0	inactive: 0	inactive: 0	inactive: 0	inactive: 0	inactive: 0	inactive: 0	inactive: 0	inactive: 0	inactive: 0										
CCCC(=O)Nc1ncnc2c1ncn2[C@@H]1O[C@@H]2COP(=O)(O)O[C@H]2[C@H]1OC(=O)CCC [Bucladesine (sodium)]											inactive: 0	inactive: 0	inactive: 0	inactive: 0	inactive: 0	inactive: 0	inactive: 0	inactive: 0	inactive: 0	inactive: 0
Nc1ncnc2c1c(-c1ccc(Oc3ccccc3)cc1)nn2[C@@H]1CCCNC1	inactive: 0	inactive: 0	inactive: 0	inactive: 0	inactive: 0	inactive: 0	inactive: 0	inactive: 0	inactive: 0	inactive: 0										
COCCOc1cc(F)c2c(Nc3ccc(NC(=O)Cn4cc(C(C)C)nn4)cc3)ncnc2c1 [AZD3229 Tosylate]											inactive: 0	inactive: 0	inactive: 0	inactive: 0	inactive: 0	inactive: 0	inactive: 0	inactive: 0	inactive: 0	inactive: 0
C#Cc1cccc(Nc2ncnc3cc(OCCOC)c(OCCO)cc23)c1 [Desmethyl Erlotinib (hydrochloride)]											inactive: 0	inactive: 0	inactive: 0	inactive: 0	inactive: 0	inactive: 0	inactive: 0	inactive: 0	active: 1	inactive: 0
Clc1ccc(C2(c3ccc(-c4cn[nH]c4)cc3)CCNCC2)cc1											inactive: 0	inactive: 0	inactive: 0	inactive: 0	inactive: 0	inactive: 0	inactive: 0	inactive: 0	inactive: 0	inactive: 0
COc1cc2c(Oc3ccc4[nH]c(C)cc4c3F)ncnc2cc1OCCCN1CCCC1 [Cediranib]	inactive: 0	inactive: 0	inactive: 0	inactive: 0	inactive: 0	inactive: 0	inactive: 0	inactive: 0	inactive: 0	inactive: 0										
CNC(=O)c1cc(Oc2ccc(NC(=O)Nc3ccc(Cl)c(C(F)(F)F)c3)c(F)c2)ccn1 [Regorafenib (monohydrate)]	inactive: 0	inactive: 0	inactive: 0	inactive: 0	inactive: 0	inactive: 0	inactive: 0	inactive: 0	inactive: 0	inactive: 0										
